# Reference: the supplement of paper PMC10735217
# Where a name gives a salt, the structure may show the parent alone. Some of the results follow. This data set is noisy: repeats of one test often differ as much as different tests do.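 The human kidney-derived cells carry a stably integrated construct of eight TEAD-binding elements driving luciferase, read by luminescence in a drug-repurposing library screen. A compound counts as a hit when its signal is more than five robust Z scores above the plate mean.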
# Tested on: HEK293A TEAD-LUC reporter
# Experiment: TEAD-luciferase reporter activity (YAP activation), robust Z score vs plate; higher = stronger YAP/TEAD activation
# Conditions: 24 h
SMILES,TEAD-luciferase reporter activity (compound concentration: 200 nM),TEAD-luciferase reporter activity (compound concentration: 10 uM),TEAD-luciferase reporter activity (compound concentration: 2 uM)
COc1ccc(CN2CCCC23Cc2ccccc2CNC3=O)cc1 (stereo unspecified),inactive: -0.524,inactive: 0.302,–
O=C(CCCN1CCC(O)(c2ccc(Br)cc2)CC1)c1ccc(F)cc1 [bromperidol],inactive: -0.888,inactive: 1.25,inactive: -0.5
CCCCCCCC/C=C\CCCCCCCC(=O)Oc1ccc2c(c1)CC[C@@H]1[C@@H]2CC[C@]2(C)C(=O)CC[C@@H]12,inactive: 2.19,inactive: -0.0603,inactive: -0.739
O=P(O)(O)OCC(Cl)(Cl)Cl,inactive: -0.404,inactive: 1.2,inactive: 0.138
O=C1CN(C(=O)c2cc(-c3cc(F)cc(Cl)c3)n(-c3ccc(F)c(Cl)c3)n2)CN1,inactive: 0.269,inactive: -0.337,inactive: -0.545
Cn1cnc([N+](=O)[O-])c1Sc1nc(N)nc2nc[nH]c12,inactive: -1.72,inactive: 0.677,inactive: 0.108
N#Cc1cccc(C(C(=O)NCC(c2ccccc2)c2ccccc2)N(CCc2c[nH]cn2)C(=O)c2ccccc2C(=O)c2ccccc2)c1 (stereo unspecified),inactive: -1.51,inactive: 0.201,inactive: -0.121
CS(=O)(=O)Nc1ccc(Oc2ccc(F)cc2)s1,inactive: -2.82,inactive: -1.16,inactive: 0.596
Cc1cn([C@@H]2C[C@@H](O)[C@H](CO)O2)c(=O)[nH]c1=O [Telbivudine],inactive: -1.21,inactive: 0.306,inactive: 1.18
CC(C(O)c1ccc(O)cc1)N1CCC(Cc2ccccc2)CC1 (stereo unspecified) [Ifenprodil],inactive: -1.2,inactive: 0.46,–
CC(C(O)c1ccc(O)cc1)N1CCC(Cc2ccccc2)CC1 (stereo unspecified) [Pharmaprojects No. 902],–,–,inactive: -1.43
C[C@H](C(=O)NS(C)(=O)=O)c1ccc(OS(=O)(=O)C(F)(F)F)cc1,inactive: -1.02,inactive: 0.935,inactive: -1.77
C[C@H](C(=O)NS(C)(=O)=O)c1ccc(OS(=O)(=O)C(F)(F)F)cc1 [Ladarixin sodium],–,–,inactive: 0.752
CC(C)=CCC/C(C)=C/CC/C(C)=C/CC/C=C(\C)CC/C=C(\C)CCC=C(C)C [Squalene],inactive: 1.08,inactive: 1.04,inactive: -0.146
CC(=O)NC[C@@H]1CC(c2ccc(C3=CCN(C(=O)CO)CC3)cc2)=NO1,inactive: -1.85,inactive: 0.29,inactive: 2.37
CC[C@@H]1[C@H](F)C(=O)N[C@@H]1COc1nccc2cc(C(N)=O)c(OC)cc12,inactive: 1.87,inactive: 3.15,inactive: 0.998
C=CC(=O)N1CCC(C2CCNc3c(C(N)=O)c(-c4ccc(Oc5ccccc5)cc4)nn32)CC1 (stereo unspecified) [(¡À)-Zanubrutinib],inactive: -0.54,inactive: 0.292,inactive: -0.497
COc1ccc([C@@H]2c3occc3C(=O)[C@H]3COC(=O)[C@@H]23)cc1OC,inactive: -1.77,inactive: 3.06,–
CCC(C/C=C/c1ccccc1)(c1ccc(Cl)cc1)N(C)C (stereo unspecified),inactive: -0.853,inactive: 2.17,inactive: -0.711
CCc1ccc(CSc2ccc(NS(=O)(=O)c3ccc(C)c(C(=O)OC)c3)cc2)cc1,inactive: -0.594,inactive: -2.32,inactive: -0.419
N#CC(=CC=Cc1ccc(O)c(O)c1)C(=O)NCc1ccccc1,inactive: 1.06,inactive: -0.00848,inactive: -1.29
CN1C(=O)C(F)=C[C@]2(C)[C@H]3CC[C@]4(C)[C@@H](C(=O)NCc5nc6cccnc6[nH]5)CC[C@H]4[C@@H]3CC[C@@H]12,inactive: 0.337,inactive: 0.0482,inactive: -0.29
COc1cc(CN2CCCCC23Cc2ccccc2CNC3=O)ccc1F (stereo unspecified),inactive: -0.619,inactive: 2.8,–
Cc1ccc2c(c1)C(COC(=O)N[C@@H](CC(C)C)C(=O)O)c1cc(C)ccc1-2,inactive: 0.614,inactive: -0.745,inactive: -1.98
O=C(CN1CCC(C(=O)c2ccc(F)cc2)CC1)c1ccc2ccccc2c1,inactive: 0.626,inactive: -1.32,inactive: -0.633
O=C(c1ccc2c(c1)OCO2)N1CCC(N2CCCOC2=O)CC1,inactive: -1.62,inactive: 2.73,–
O=C1NCc2ccccc2CC12CCCN2Cc1c(F)cccc1F (stereo unspecified),inactive: -0.186,inactive: 1.3,–

# Whole records, quoted from the list. Order of values: TEAD-luciferase reporter activity (compound concentration: 200 nM) | TEAD-luciferase reporter activity (compound concentration: 10 uM) | TEAD-luciferase reporter activity (compound concentration: 2 uM)
# O=C(c1ccc2c(c1)OCO2)N1CCC(N2CCCOC2=O)CC1 as listed: inactive: -1.62 | inactive: 2.73 | –
# CC(C(O)c1ccc(O)cc1)N1CCC(Cc2ccccc2)CC1 (stereo unspecified) [Pharmaprojects No. 902] as listed: – | – | inactive: -1.43

# (continued)

SMILES,TEAD-luciferase reporter activity (compound concentration: 200 nM),TEAD-luciferase reporter activity (compound concentration: 10 uM),TEAD-luciferase reporter activity (compound concentration: 2 uM)
O=C([O-])C(=O)[O-],inactive: 0.81,inactive: -0.11,inactive: -0.707
CC(C)=CCOc1ccc(/C=C/C(=O)c2ccc(OCC=C(C)C)cc2OCC(=O)O)cc1 [sofalcone],inactive: -0.155,inactive: 4.22,inactive: -0.862
CCOC(=O)Cc1cc(Cl)c(Oc2ccc(C(=O)NC(C)(C)C)cc2NS(=O)(=O)c2ccc(OC)cc2)cc1F,inactive: -0.968,inactive: -0.033,inactive: -0.0863
COc1ccc2c(O[C@@H]3C[C@H]4C(=O)N[C@]5(C(=O)O)C[C@H]5/C=C\CCCCC[C@H](NC(=O)OC5CCCC5)C(=O)N4C3)cc(-c3csc(NC(C)C)n3)nc2c1,inactive: -1.13,inactive: 2.44,inactive: -1.18
COC(=O)C1=C(C)NC(COC(N)=O)=C(C(=O)OC(C)C)C1c1cccc(Cl)c1Cl (stereo unspecified) [Lemildipine],inactive: 0.383,inactive: 0.0185,inactive: -1.41
CC1(C)OC(=O)Nc2ccc(Br)cc21,inactive: -0.307,inactive: -1.89,inactive: -2.27
Cc1cc(C(C)(C)CC(C)(C)C)ccc1OCCOCC[N+](C)(C)Cc1ccccc1,–,–,inactive: -1
Cc1cc(C(C)(C)CC(C)(C)C)ccc1OCCOCC[N+](C)(C)Cc1ccccc1 [Methylbenzethonium chloride],inactive: -0.181,inactive: -0.265,–
O=C(/C=C/c1c(C(=O)O)[nH]c2cc(Cl)cc(Cl)c12)Nc1ccccc1 [Gavestinel sodium],inactive: -2.16,inactive: -0.451,inactive: -0.514
C[C@]12CCC(=O)C=C1CC[C@@H]1[C@@H]2C(=O)C[C@@]2(C)[C@H]1CC[C@]2(O)C(=O)CO,inactive: -0.253,inactive: 0.965,–
C[C@]12CCC(=O)C=C1CC[C@@H]1[C@@H]2C(=O)C[C@@]2(C)[C@H]1CC[C@]2(O)C(=O)CO [Cortisone],–,–,inactive: 0.277
O=C1CCC(c2ccccc2)(C2CCN(Cc3ccccc3)CC2)C(=O)N1 (stereo unspecified),–,–,inactive: -0.986
O=C1CCC(c2ccccc2)(C2CCN(Cc3ccccc3)CC2)C(=O)N1 (stereo unspecified) [Dexetimide],inactive: -1,inactive: 0.118,–
COc1ccc(N2C[C@H](CN3CCC(O)(c4ccc5c(c4)OCO5)CC3)OC2=O)cc1 [Panamesine hydrochloride],inactive: -1.1,inactive: 0.529,inactive: 0.781
N=C(N)Nc1ccc(C(=O)Oc2ccc(SCCN3C(=O)CCC3=O)cc2)cc1 [Patamostat mesylate],inactive: -2.29,inactive: 2.13,inactive: -0.215
Cc1cc(SCCN2CCCCC2)nc2ccccc12,inactive: 0.822,inactive: 1.93,inactive: -0.16
CCC(C)CCCCC(=O)NC(CCN)C(=O)NC(C(=O)NC(CCN)C(=O)NC1CCNC(=O)C(C(C)O)NC(=O)C(CCN)NC(=O)C(CCN)NC(=O)C(CC(C)C)NC(=O)C(Cc2ccccc2)NC(=O)C(CCN)NC1=O)C(C)O (stereo unspecified),inactive: -0.59,inactive: 2.31,inactive: -1.57
Cc1cc[nH]n1,inactive: -0.0627,inactive: -0.931,inactive: -1.42
CCNC(=O)Nc1ncnc2c1ncn2[C@@H]1O[C@H](COP(=O)(O)O)[C@H]2O[C@H](/C=C/c3ccccc3)O[C@H]21 [Regrelor disodium],inactive: 4.28,inactive: 0.738,inactive: -0.396
CC(Oc1ccc(Cl)cc1)c1ccnc2ncnn12 (stereo unspecified),inactive: -0.0683,inactive: -1.07,inactive: -0.185
COc1ccc(F)c(F)c1C(=O)c1cnc(NC2CCN(S(C)(=O)=O)CC2)nc1N,inactive: 0.51,inactive: -1.72,inactive: -2.52
CC[C@H]1OC(=O)C[C@@H](O)[C@H](C)[C@@H](O[C@@H]2O[C@H](C)[C@@H](O)[C@H](N(C)C)[C@H]2O)[C@@H](CCN2C[C@H](C)C[C@H](C)C2)C[C@@H](C)C(=O)/C=C/C(C)=C/[C@@H]1CO[C@@H]1O[C@H](C)[C@@H](O)[C@@H](OC)[C@H]1OC [Tilmicosin],inactive: 0.683,inactive: -0.285,inactive: 0.809
Cn1c(=O)c2c(ncn2CCCNCC(O)c2cc(O)cc(O)c2)n(C)c1=O (stereo unspecified) [reproterol],inactive: -1.76,inactive: 2.4,inactive: -0.758
Cc1csc(NC(=O)C(C(=O)OC(C)C)=C2SCS2)n1 [Mivotilate],–,–,inactive: -0.389
Cc1csc(NC(=O)C(C(=O)OC(C)C)=C2SCS2)n1 [mivotilate],inactive: 0.664,inactive: 0.281,inactive: 2.02
CC1=C(C(=O)OC(C)C)C(c2cccc([N+](=O)[O-])c2)C(C(=O)OC(C)C)=C(C)N1,inactive: -0.86,inactive: 0.936,inactive: 0.434
CNCC12CC3CC(CC(C3)C1)C2,inactive: -0.403,inactive: -1.38,inactive: -1.09
